The text below walks through data of PMC11873240.

For the assay, the target named is T1, Phospholipase C β4 (mouse (endogenous in BMMs and preosteoclasts)) (UniProt Q91UZ1).
T1 sequence: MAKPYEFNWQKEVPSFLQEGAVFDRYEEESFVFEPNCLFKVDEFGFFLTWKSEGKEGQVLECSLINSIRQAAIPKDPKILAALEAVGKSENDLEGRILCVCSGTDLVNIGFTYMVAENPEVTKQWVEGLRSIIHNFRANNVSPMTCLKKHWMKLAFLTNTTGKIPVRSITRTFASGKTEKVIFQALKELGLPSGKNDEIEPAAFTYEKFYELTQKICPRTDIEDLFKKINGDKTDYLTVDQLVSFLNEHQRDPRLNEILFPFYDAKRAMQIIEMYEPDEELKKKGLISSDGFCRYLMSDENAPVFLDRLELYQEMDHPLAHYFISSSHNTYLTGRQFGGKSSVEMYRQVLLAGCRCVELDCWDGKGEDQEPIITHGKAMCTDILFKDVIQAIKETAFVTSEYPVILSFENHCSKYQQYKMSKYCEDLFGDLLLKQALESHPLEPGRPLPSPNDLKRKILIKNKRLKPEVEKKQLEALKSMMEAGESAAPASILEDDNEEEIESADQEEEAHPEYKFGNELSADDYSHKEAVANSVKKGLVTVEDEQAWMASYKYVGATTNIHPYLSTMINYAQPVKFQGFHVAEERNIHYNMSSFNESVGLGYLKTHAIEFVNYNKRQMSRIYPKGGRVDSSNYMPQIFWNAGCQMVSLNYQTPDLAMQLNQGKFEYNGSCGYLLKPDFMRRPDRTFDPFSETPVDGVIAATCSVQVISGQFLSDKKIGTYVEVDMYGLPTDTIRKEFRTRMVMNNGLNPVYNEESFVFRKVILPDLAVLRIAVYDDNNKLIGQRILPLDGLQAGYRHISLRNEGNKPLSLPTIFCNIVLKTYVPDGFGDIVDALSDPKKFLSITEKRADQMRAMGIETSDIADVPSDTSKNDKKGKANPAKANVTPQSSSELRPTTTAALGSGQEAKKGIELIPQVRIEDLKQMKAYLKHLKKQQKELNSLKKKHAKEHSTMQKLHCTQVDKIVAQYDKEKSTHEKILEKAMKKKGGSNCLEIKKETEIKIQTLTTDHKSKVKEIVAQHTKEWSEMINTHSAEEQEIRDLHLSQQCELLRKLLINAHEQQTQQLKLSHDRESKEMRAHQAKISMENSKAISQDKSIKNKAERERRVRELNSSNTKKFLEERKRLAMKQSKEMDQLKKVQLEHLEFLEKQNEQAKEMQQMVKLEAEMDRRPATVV
Description: co-IP; lysate of serum- and cytokine-starved BMMs stimulated with RANKL (50 ng/ml) for the indicated times; IP with anti-PLCβ4 antibody; immunoblot with anti-MKK3, anti-p38 and anti-PLCβ4. For orientation: In western blotting, separated proteins are transferred to a membrane and probed.

These are yes or no findings as the source states them, for the method shown. Binding seen in cells or lysates may run through a third protein. Some results given as binding are weak or reduced against the parent protein; the word gives no strength.

B1: MAPK kinase 3 (enzyme, UniProt O09110 1-347)
chain: MESPAASPPASLPQTKGKSKRKKDLRISCVSKPPVSNPTPPRNLDSRTFITIGDRNFEVEADDLVTISELGRGAYGVVEKVRHAQSGTIMAVKRIRATVNTQEQKRLLMDLDINMRTVDCFYTVTFYGALFREGDVWICMELMDTSLDKFYRKVLEKNMKIPEDILGEIAVSIVRALEHLHSKLSVIHRDVKPSNVLINKEGHVKMCDFGISGYLVDSVAKTMDAGCKPYMAPERINPELNQKGYNVKSDVWSLGITMIEMAILRFPYESWGTPFQQLKQVVEEPSPQLPADQFSPEFVDFTSQCLRKNPAERMSYLELMEHPFFTLHKTKKTDIAAFVKEILGEDS
As for B1, the binding entry is recorded as “binds”.
